Assay results: patent US20250295653A1, “Use Of Glycine Transporter- 1 Antagonists As Vascular Dementia And/Or Stroke Prophylactic/Treatment Agents” (Recherches Neuro-Hippocampe Inc., priority 2022, published 2025)
For at least one compound, name, drawing or mass did not settle the structure.

Target: NMDAR (Mus musculus, UniProt P35438)
Assay: Whole-cell voltage-clamp recordings of evoked NMDAR-EPSCs in CA1 pyramidal cells of acute hippocampal slices
Type: cell-based
Details: slices incubated 1 hr in 30 μM CPA

## CC(=O)C1=C(O)[C@@H]2[C@H]3c4c[nH]c5cccc(c45)C[C@H]3C(C)(C)N2C1=O [CPA, cyclopiazonic acid]
  effect on the glycine-induced decrease in NMDAR-EPSC amplitude: had no effect
